From PubChem BioAssay AID504467 (National Center for Advancing Translational Sciences (NCATS), 2011)
About 7,700 (2.3%) of roughly 330,000 compounds were called active. This list was built around the results that the source calls inconclusive (neither active nor inactive); the mix of calls is not that of the screen. Calls come from the whole dose curve; as a rule, active = well fitted inhibition curve with a large enough effect; inconclusive = small, poorly fitted or top-dose-only effect, or effect the other way; inactive = flat fitted curve, though single readings scatter. Potencies beside an inconclusive call are fits to weak or partial responses and may not hold up.

Assay: qHTS screen for small molecules that inhibit ELG1-dependent DNA repair in human embryonic kidney (HEK293T) cells expressing luciferase-tagged ELG1; note: nearly all actives have a fitted effect of over 55% in size
Conditions: HEK293T ELG1-luciferase reporter, luminescence, 16 h, DNA damage induced by 5-fluorouridine; series mostly up to 46.1 µM
In short: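 Step one: seed 2,000 cells per well. Step two: pin-transfer compound or DMSO alongside 5-fluorouridine. Step three: incubate 16 hr, 37 °C, 5% CO2. Step four: add ONE-Glo, wait 30 min, read luminescence.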
Potency is the fitted concentration of half-maximal effect.

Which Potency does the source give for `CCC(=NCCc1c(C)[nH]c2ccccc12)C1=C(O)CC(c2ccccc2)CC1=O` (stereo not drawn) here?
The Potency was active: 8.2 µM.

Which Potency does the source give for `O=C(O)c1ccc(N2C(=O)/C(=C/C=C/c3ccccc3)SC2=S)cc1` here?
The Potency was “inactive”.

For `O=C(NCCCN1CCOCC1)c1ccc(Sc2ccccc2Cl)c([N+](=O)[O-])c1`, which Potency is on record?
Its Potency is inconclusive: 23.1 µM [activator, partial curve, poor fit].

With `COc1ccc(C)cc1N=Nc1ccc(O)c2ncccc12` as the molecule, how does the Potency read?
Its Potency is inconclusive: 3.66 µM [inhibitor, single point].

With `CC(=O)Nc1ccc(N2C(C(C)=O)=NN(c3ccccc3)C2c2cccs2)cc1` (stereo not drawn) as the molecule, how does the Potency read?
The Potency was “inactive”.

For `COc1cc(OC)cc(-c2cc3nc4c(c(N5CCN(c6ncccn6)CC5)n3n2)CCCC4)c1`, which Potency is on record?
Its Potency is active: 14.6 µM.

With `Cc1cc(CNCc2cn(C)nc2-c2ccc(Oc3ccccc3)cc2)on1` as the molecule, how does the Potency read?
The Potency was inconclusive: 29.1 µM [inhibitor, partial curve, poor fit].

Which Potency does the source give for `Cc1ccc(OCc2nnc(N)s2)cc1C` here?
Its Potency is inconclusive: 18.3 µM [activator, partial curve].

With `Cc1cccc(OCc2nnc(SCC(=O)Nc3ccc(N4CCOCC4)cc3)o2)c1` as the molecule, how does the Potency read?
The Potency was “inactive”.

For `CCCn1c(=O)c(C(=O)N/N=C/c2ccccc2F)c(O)c2ccccc21`, which Potency is on record?
Its Potency is inconclusive: 13 µM [activator, partial curve].

Which Potency does the source give for `Cc1ccc(C(=O)COC(=O)c2cccc([N+](=O)[O-])c2)s1` here?
Its Potency is inconclusive: 35.5 µM [activator, single point].

For `NC(=O)NNC1=Nc2cccc3cccc1c23`, which Potency is on record?
Its Potency is “inactive”.

With `COc1ccc(NC(=O)C(C)SCc2ccccc2)cc1` (stereo not drawn) as the molecule, how does the Potency read?
Its Potency is inconclusive: 10.3 µM [activator, partial curve, poor fit].

Which Potency does the source give for `Cn1cc(Br)c(-c2cccc(N3C(=O)CC(C)(C)CC3=O)c2)n1` here?
Its Potency is inconclusive: 29.1 µM [inhibitor, single point].

With `Cc1cc(Nc2ncc(Cl)cc2Cl)n(-c2ccccc2)n1` as the molecule, how does the Potency read?
The Potency was “inactive”.

For `Cc1cc(Cl)ccc1Oc1ncc(-c2ccc(Cl)cc2)cn1`, which Potency is on record?
Its Potency is “inactive”.

With `CC(=O)c1sc(NC(=O)CS(=O)(=O)c2ccccc2)nc1-c1ccccc1` as the molecule, how does the Potency read?
Its Potency is inconclusive: 29.1 µM [activator, single point].

Which Potency does the source give for `Cc1ccc2nc(SCC(=O)Nc3nnc(SCC(N)=O)s3)[nH]c2c1` here?
Its Potency is “inactive”.

Which Potency does the source give for `O=C(CCCc1cccs1)Nc1nccs1` here?
Its Potency is inconclusive: 20.6 µM [activator, partial curve, poor fit].

For `O=C(Cn1c(CSc2ccccc2)nc2ccccc21)Nc1ccccc1`, which Potency is on record?
Its Potency is “inactive”.

Which Potency does the source give for `CCCCC(=O)Nc1cccc(NC(=S)NC(=O)C(C)C)c1` here?
Its Potency is inconclusive: 25.9 µM [inhibitor, single point].

For `C/C(=N\NC(=O)c1cccc(S(=O)(=O)N2CCOCC2)c1)c1cc2ccccc2o1`, which Potency is on record?
Its Potency is “inactive”.

Which Potency does the source give for `O=C(Nc1ccc2c(c1)OCCO2)c1cccnc1Oc1ccccc1` here?
Its Potency is inconclusive: 29.1 µM [inhibitor, single point].

With `CSCCC(NC(=O)c1ccccc1)C(=O)O` (stereo not drawn) as the molecule, how does the Potency read?
Its Potency is inconclusive: 0.0046 µM [inhibitor, full curve].

Which Potency does the source give for `O=[N+]([O-])c1cccc(-c2c[n+]3c(n2-c2ccccc2)SCC3)c1` here?
Its Potency is inconclusive: 5.17 µM [inhibitor, partial curve].

Which Potency does the source give for `O=C(NCc1ccco1)c1cc2ccc(O)cc2oc1=O` here?
Its Potency is inconclusive: 16.4 µM [activator, partial curve].

For `COc1ccc(C(=O)NC2=NCCS2)cc1S(=O)(=O)N1CCCCC1C` (stereo not drawn), which Potency is on record?
Its Potency is “inactive”.

With `O=C(C1=COCCO1)N1CCN(c2nc3ccc([N+](=O)[O-])cc3s2)CC1` as the molecule, how does the Potency read?
Its Potency is “inactive”.

Which Potency does the source give for `CCCOc1ncnc2c1[nH]c1ccc(OC)cc12` here?
Its Potency is inconclusive: 2.06 µM [activator, partial curve].

With `O=C(CC1SC(=NCCc2ccccc2)N(/N=C/c2cccs2)C1=O)Nc1ccc(Cl)cc1` (stereo not drawn) as the molecule, how does the Potency read?
The Potency was “inactive”.

Which Potency does the source give for `CC(=O)CCc1c(C)nc2ccc(C(=O)O)cc2c1Cl` here?
Its Potency is inconclusive: 20.6 µM [activator, single point].

For `COc1cccc(NC(=O)C(C)N2C(=O)c3ccccc3C2=O)c1` (stereo not drawn), which Potency is on record?
The Potency was “inactive”.

With `COc1ccc(C(=O)c2ccsc2N)cc1` as the molecule, how does the Potency read?
Its Potency is inconclusive: 11.6 µM [activator, partial curve].

For `COc1ccccc1N1CCN(S(=O)(=O)CCNC(=O)c2cc(=O)c3ccccc3o2)CC1`, which Potency is on record?
The Potency was inconclusive: 23.1 µM [inhibitor, partial curve].

Which Potency does the source give for `O=[N+]([O-])c1ccccc1N/N=C\c1ccccc1Cl` here?
The Potency was inconclusive: 5.8 µM [activator, partial curve].

For `CN(C)c1ccc(/C=C/C(=O)c2cccnc2)cc1`, which Potency is on record?
Its Potency is “inactive”.

Which Potency does the source give for `CCc1ccc(NC(=O)c2cnccn2)cc1` here?
The Potency was inconclusive: 5.8 µM [activator, partial curve].

For `O=C(OCC(=O)N1CCCCC1)c1ccc2c(c1)C(=O)N(Cc1ccco1)C2=O`, which Potency is on record?
The Potency was “inactive”.

For `Cc1onc(-c2ccccc2Cl)c1-c1nc(-c2ccccn2)no1`, which Potency is on record?
Its Potency is “inactive”.

With `CCN(C(=O)COC(=O)c1ccc2c(c1)OCO2)c1c(N)n(Cc2ccccc2)c(=O)[nH]c1=O` as the molecule, how does the Potency read?
Its Potency is inconclusive: 23.1 µM [activator, single point].

Which Potency does the source give for `CCCCn1c(=O)c2c(O)cc(=O)oc2c2ccccc21` here?
Its Potency is “inactive”.

Which Potency does the source give for `Cc1[nH]n(C(N)=S)c(=O)c1N=Nc1ccc2ccccc2c1` here?
Its Potency is inconclusive: 10.3 µM [activator, partial curve].

Which Potency does the source give for `CC(=O)c1ccc(OCCCC(=O)NCc2nnc3ccccn23)cc1` here?
The Potency was inconclusive: 1.3 µM [inhibitor, single point].

Which Potency does the source give for `CCc1noc(C)c1C(=O)Nc1sc(C(=O)N(C)C)c(C)c1C(=O)OC` here?
The Potency was inconclusive: 16.4 µM [inhibitor, single point].

Which Potency does the source give for `O=C(Nc1ccccc1OC(F)F)c1oc2ccccc2c1COc1ccccc1` here?
The Potency was inconclusive: 13 µM [activator, partial curve, poor fit].

Which Potency does the source give for `Cc1nc2ccccc2c2oc(C(=O)N3CCc4ccccc4C3)cc12` here?
Its Potency is active: 25.9 µM.

For `CN1C(=O)C(O)(c2nnc(-c3ccccc3)o2)c2ccccc21` (stereo not drawn), which Potency is on record?
The Potency was inconclusive: 18.3 µM [activator, partial curve].

With `CC(=O)N1CCc2c(sc(NC(=O)c3ccc([N+](=O)[O-])o3)c2C#N)C1` as the molecule, how does the Potency read?
Its Potency is inconclusive: 20.6 µM [activator, partial curve, poor fit].
